Results are given in words; binding and its absence hold for the method and conditions named. In cells and extracts the contact can be indirect. Some binding calls cover weakened binding; strength is not graded here. Tags and fused reporters may be left off the sequences shown.
Key:
[1] = target: EGFP-tagged LRP6 (low-density lipoprotein receptor-related protein 6) (UniProt O75581); test: FRET or BRET; FLIM-FRET as a1, but cells incubated with control media without Wnt3a (unstimulated)
[2] = target: EGFP-tagged LRP6 (low-density lipoprotein receptor-related protein 6) (UniProt O75581); test: FRET or BRET; FLIM-FRET (EGFP donor lifetime, mCherry acceptor; apparent FRET efficiency) in transfected YAMC, IMCE and IMCE βcat colonocytes fixed in 4% PFA and 0.2% glutaraldehyde; Wnt3a-conditioned media or control media for 30 min; pre-treatment with MβCD (10 mM, 30 min), mevastatin (5 µM, 24 h) or PAO (20 µM, 30 min) lowered the FRET efficiency
[3] = target: EGFP-tagged Lypd6 (Ly6 family protein LY6/PLAUR domain-containing 6) (UniProt Q86Y78); test: as above

The chains behind the UniProt entries cited, without tags or fusion partners. Residues count along the entry.
UniProt O75581, residues 20-1613: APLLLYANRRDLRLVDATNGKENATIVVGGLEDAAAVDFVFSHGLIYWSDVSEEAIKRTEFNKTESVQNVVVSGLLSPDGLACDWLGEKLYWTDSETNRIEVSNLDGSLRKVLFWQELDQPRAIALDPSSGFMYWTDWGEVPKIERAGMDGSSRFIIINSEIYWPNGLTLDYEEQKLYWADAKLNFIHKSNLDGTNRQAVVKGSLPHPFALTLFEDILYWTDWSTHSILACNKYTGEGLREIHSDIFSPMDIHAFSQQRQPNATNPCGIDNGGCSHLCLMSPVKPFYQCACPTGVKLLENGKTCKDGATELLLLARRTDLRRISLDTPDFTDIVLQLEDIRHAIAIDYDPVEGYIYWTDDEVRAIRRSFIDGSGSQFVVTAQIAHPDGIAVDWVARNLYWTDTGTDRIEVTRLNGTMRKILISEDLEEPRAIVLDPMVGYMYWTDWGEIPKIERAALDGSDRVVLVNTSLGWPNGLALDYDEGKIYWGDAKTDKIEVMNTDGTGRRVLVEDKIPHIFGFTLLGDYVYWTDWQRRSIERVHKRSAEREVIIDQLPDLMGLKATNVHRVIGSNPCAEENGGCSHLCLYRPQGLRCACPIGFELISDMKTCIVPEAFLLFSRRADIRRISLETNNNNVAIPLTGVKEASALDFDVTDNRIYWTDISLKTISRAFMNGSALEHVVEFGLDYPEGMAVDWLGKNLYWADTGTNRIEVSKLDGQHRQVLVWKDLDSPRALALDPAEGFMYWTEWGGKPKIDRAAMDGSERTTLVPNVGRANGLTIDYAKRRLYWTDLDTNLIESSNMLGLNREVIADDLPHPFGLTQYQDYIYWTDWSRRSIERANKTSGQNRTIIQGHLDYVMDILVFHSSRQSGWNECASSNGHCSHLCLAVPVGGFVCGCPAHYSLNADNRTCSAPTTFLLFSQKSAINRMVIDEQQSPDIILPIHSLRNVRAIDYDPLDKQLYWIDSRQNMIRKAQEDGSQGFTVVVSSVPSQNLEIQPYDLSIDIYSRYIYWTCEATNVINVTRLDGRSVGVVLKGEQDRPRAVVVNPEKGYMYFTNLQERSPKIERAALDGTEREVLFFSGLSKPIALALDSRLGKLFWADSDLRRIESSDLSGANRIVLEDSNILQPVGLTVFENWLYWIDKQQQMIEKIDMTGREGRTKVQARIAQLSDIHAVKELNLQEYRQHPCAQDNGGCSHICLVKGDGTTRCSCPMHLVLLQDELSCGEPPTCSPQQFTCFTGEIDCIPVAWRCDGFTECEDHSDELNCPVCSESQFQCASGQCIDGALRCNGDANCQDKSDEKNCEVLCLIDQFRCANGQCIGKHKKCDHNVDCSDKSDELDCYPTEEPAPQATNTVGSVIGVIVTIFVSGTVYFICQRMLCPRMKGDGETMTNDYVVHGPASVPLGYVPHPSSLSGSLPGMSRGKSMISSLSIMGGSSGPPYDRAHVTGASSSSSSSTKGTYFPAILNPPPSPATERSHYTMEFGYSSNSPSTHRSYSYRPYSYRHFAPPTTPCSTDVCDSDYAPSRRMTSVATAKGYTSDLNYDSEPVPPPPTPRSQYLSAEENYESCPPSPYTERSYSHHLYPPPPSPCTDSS

B1: mCherry-tagged Dvl1 (Dishevelled 1) (protein, UniProt O14640 1-695)
chain: MAETKIIYHMDEEETPYLVKLPVAPERVTLADFKNVLSNRPVHAYKFFFKSMDQDFGVVKEEIFDDNAKLPCFNGRVVSWLVLAEGAHSDAGSQGTDSHTDLPPPLERTGGIGDSRPPSFHPNVASSRDGMDNETGTESMVSHRRERARRRNREEAARTNGHPRGDRRRDVGLPPDSASTALSSELESSSFVDSDEDGSTSRLSSSTEQSTSSRLIRKHKRRRRKQRLRQADRASSFSSITDSTMSLNIVTVTLNMERHHFLGISIVGQSNDRGDGGIYIGSIMKGGAVAADGRIEPGDMLLQVNDVNFENMSNDDAVRVLREIVSQTGPISLTVAKCWDPTPRSYFTVPRADPVRPIDPAAWLSHTAALTGALPRYGTSPCSSAVTRTSSSSLTSSVPGAPQLEEAPLTVKSDMSAVVRVMQLPDSGLEIRDRMWLKITIANAVIGADVVDWLYTHVEGFKERREARKYASSLLKHGFLRHTVNKITFSEQCYYVFGDLCSNLATLNLNSGSSGTSDQDTLAPLPHPAAPWPLGQGYPYQYPGPPPCFPPAYQDPGFSYGSGSTGSQQSEGSKSSGSTRSSRRAPGREKERRAAGAGGSGSESDHTAPSGVGSSWRERPAGQLSRGSSPRSQASATAPGLPPPHPTTKAYTVVGGPPGGPPVRELAAVPPELTGSRQSFQKAMGNPCEFFVDIM
B1 was tested. Which binding [1] did it give?
The binding was “binds weakly”.

And the binding [2]?
The binding was “binds”.

B2: EGFP-tagged Lypd6 (Ly6 family protein LY6/PLAUR domain-containing 6) (protein, UniProt Q86Y78 23-147)
chain: AQSRDFTVKDIIYLHPSTTPYPGGFKCFTCEKAADNYECNRWAPDIYCPRETRYCYTQHTMEVTGNSISVTKRCVPLEECLSTGCRDSEHEGHKVCTSCCEGNICNLPLPRNETDATFATTSPIN
With B2 as the binder, how does the binding [3] read?
The binding was “binds”.

From PMC10356786
